Consider five molecules from article doi:10.1101/233213.

Experiment in all cases: co-IP
Test [1] concerns the target T1, FLAG-tagged p80-LNX1 (Ligand of Numb protein X1, isoform p80) (UniProt O70263).
T1 sequence: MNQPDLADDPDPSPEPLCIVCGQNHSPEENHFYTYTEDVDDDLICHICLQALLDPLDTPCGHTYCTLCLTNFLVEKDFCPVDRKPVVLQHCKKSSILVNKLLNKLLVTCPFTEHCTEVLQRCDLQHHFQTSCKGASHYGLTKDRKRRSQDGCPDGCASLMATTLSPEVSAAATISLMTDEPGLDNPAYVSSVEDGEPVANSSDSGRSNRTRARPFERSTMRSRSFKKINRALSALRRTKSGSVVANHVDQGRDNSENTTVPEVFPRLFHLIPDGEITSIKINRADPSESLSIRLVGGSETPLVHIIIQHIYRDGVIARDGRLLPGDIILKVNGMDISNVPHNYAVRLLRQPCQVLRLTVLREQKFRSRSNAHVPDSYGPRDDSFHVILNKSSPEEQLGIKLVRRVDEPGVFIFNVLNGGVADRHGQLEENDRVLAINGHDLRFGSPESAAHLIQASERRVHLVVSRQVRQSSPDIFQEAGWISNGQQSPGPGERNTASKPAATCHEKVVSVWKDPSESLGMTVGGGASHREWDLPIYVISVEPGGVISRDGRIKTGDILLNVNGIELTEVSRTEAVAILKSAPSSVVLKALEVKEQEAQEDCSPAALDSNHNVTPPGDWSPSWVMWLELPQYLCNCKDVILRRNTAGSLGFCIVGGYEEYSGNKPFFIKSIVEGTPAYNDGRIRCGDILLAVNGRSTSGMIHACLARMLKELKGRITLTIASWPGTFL

The target of test [2] is T2, GlyT2 (neuronal glycine transporter 2), wild type (rat) (UniProt P58295).
T2 sequence: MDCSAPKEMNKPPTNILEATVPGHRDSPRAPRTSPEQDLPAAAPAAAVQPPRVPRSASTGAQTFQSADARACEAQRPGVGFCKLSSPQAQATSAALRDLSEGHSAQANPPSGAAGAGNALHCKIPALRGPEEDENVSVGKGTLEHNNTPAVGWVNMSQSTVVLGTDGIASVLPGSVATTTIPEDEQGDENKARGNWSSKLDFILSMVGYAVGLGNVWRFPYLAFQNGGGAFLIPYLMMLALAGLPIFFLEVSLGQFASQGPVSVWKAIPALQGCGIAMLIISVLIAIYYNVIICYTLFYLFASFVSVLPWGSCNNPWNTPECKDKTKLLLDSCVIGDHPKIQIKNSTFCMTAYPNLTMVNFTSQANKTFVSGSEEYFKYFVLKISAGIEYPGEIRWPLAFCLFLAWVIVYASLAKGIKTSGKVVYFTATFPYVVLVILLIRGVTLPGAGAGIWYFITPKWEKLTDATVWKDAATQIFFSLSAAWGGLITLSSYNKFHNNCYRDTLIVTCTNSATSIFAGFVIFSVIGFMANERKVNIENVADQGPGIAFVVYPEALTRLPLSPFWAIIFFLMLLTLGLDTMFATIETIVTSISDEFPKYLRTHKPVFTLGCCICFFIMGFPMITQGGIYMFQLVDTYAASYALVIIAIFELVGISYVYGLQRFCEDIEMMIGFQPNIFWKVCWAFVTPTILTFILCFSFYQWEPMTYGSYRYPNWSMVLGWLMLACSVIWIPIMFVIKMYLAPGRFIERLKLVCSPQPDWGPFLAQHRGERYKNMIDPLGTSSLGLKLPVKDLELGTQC

Test [3] concerns the target T3, GlyT2 expressed in primary cortical neurons (rat) (UniProt P58295).
T3 sequence: T2 sequence

Where a chain is given by its changes, count along the chain named. Names may count otherwise. These are yes or no findings as the source states them, for the method shown. Binding seen in cells or lysates may run through a third protein. Some results given as binding are weak or reduced against the parent protein; the word gives no strength. Sequences can lack the tags named with a protein.

B1: GlyT2-Δ8cter (domain or fragment, UniProt P58295 1-791)
chain: MDCSAPKEMNKPPTNILEATVPGHRDSPRAPRTSPEQDLPAAAPAAAVQPPRVPRSASTGAQTFQSADARACEAQRPGVGFCKLSSPQAQATSAALRDLSEGHSAQANPPSGAAGAGNALHCKIPALRGPEEDENVSVGKGTLEHNNTPAVGWVNMSQSTVVLGTDGIASVLPGSVATTTIPEDEQGDENKARGNWSSKLDFILSMVGYAVGLGNVWRFPYLAFQNGGGAFLIPYLMMLALAGLPIFFLEVSLGQFASQGPVSVWKAIPALQGCGIAMLIISVLIAIYYNVIICYTLFYLFASFVSVLPWGSCNNPWNTPECKDKTKLLLDSCVIGDHPKIQIKNSTFCMTAYPNLTMVNFTSQANKTFVSGSEEYFKYFVLKISAGIEYPGEIRWPLAFCLFLAWVIVYASLAKGIKTSGKVVYFTATFPYVVLVILLIRGVTLPGAGAGIWYFITPKWEKLTDATVWKDAATQIFFSLSAAWGGLITLSSYNKFHNNCYRDTLIVTCTNSATSIFAGFVIFSVIGFMANERKVNIENVADQGPGIAFVVYPEALTRLPLSPFWAIIFFLMLLTLGLDTMFATIETIVTSISDEFPKYLRTHKPVFTLGCCICFFIMGFPMITQGGIYMFQLVDTYAASYALVIIAIFELVGISYVYGLQRFCEDIEMMIGFQPNIFWKVCWAFVTPTILTFILCFSFYQWEPMTYGSYRYPNWSMVLGWLMLACSVIWIPIMFVIKMYLAPGRFIERLKLVCSPQPDWGPFLAQHRGERYKNMIDPLGTSSLGLKLPVK
Consider B1, for which, in test [1], the binding entry was “binds”.

B2: GlyT2-4KR (protein, UniProt P58295 1-799)
chain: T2 sequence with K751R, K773R, K787R, K791R
For the molecule B2, in test [1], the binding result is listed as “binds”.

B3: GlyT2 (neuronal glycine transporter 2), wild type (protein, UniProt P58295 1-799)
chain: T2 sequence
Turning to B3, the binding result in test [1] is listed as “binds”.

B4: FLAG-tagged p80-LNX1^C45A (enzyme, UniProt O70263 1-728)
chain: T1 sequence with C45A
As to B4, the binding result in test [2] is reported as “binds”.

B5: FLAG-tagged p80-LNX1 expressed in primary cortical neurons (enzyme, UniProt O70263 1-728)
chain: T1 sequence
As to B5, the binding result in test [3] was “binds”.
